Experimental data as given in patent US20240165085A1, “ORAL FELINE FEED AND METHODS FOR CONTROLLING TICK INFESTATIONS IN A FELINE” (priority 2021, published 2024).
Some entries share one result that the patent states for a list of compounds.

System: Dermacentor variabilis
Experiment: Example 3: efficacy of afoxolaner and fluralaner liquid formulations per os in cats against Dermacentor variabilis
Assay type: in vivo
Settings: liquid formulation, by day 7
From the text: Efficacy of Various Formulations of Isoxazoline Administered per os, i.e. by mouth, to Cats for the Treatment and Control of Dermacentor variabilis.
Methods: A pool of 36 cats are to be preliminarily infested with ˜50 unfed adult D. variabilis ticks in order to produce cats that can suitably sustain a reliable infestation rate, defined as approximately 25% of attached ticks being live at the end of a 48-hour period. The 30 cats with the highest live attached tick counts are to be selected for inclusion in the study. The cats are to be randomly assigned to a single control group and 4 treatment groups with 6 cats per treatment group.
The cats are to be housed individually during the study period and are to be fed a commercial dry cat food ration with ad libitum access to water.
Each cat in a treatment group (test groups 2-5) is to receive by mouth, preferably in combination with feed, a liquid formulation of isoxazoline. The dosage is to be administered to the cats on each of days 0-29 according to TABLE 2.
Cats in the control group are not to receive isoxazoline or any other tick control treatment. Each cat in the treatment group is to be offered its daily ration (dry food) and the individual doses of liquid formulation are to be administered after the individual cat has eaten at least 25% of its total daily ration. […]

**Q.** What does the source list for `Cc1cc(C2=NOC(c3cc(Cl)cc(Cl)c3)(C(F)(F)F)C2)ccc1C(=O)NCC(=O)NCC(F)(F)F` (centres unmarked) [Fluralaner, 4-[5-(3,5-dichlorophenyl)-5-(trifluoromethyl)-4,5-dihydro-1,2-oxazol-3-yl]-2-methyl-N-{2-oxo-2-[(2,2,2-trifluoroethyl)amino]ethyl}benzamide]?
**A.** efficacy (treatment group 4, 0.125 mg/kg daily (Days 0-29)): greater than 95%; efficacy (treatment group 5, 0.375 mg/kg daily (Days 0-29)): greater than 95%
